# PubChem BioAssay AID1224830, NIAID | 2016
# Test: 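Genes whose knock-down alters the TNF-alpha reporter response to LPS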 (primary screen)
# Cells: human THP-1 monocytic leukaemia cells, TNF dual-luciferase reporter clone, PMA-differentiated to macrophage-like cells
# Reagent: siRNA pool against human genes, 50 nM
# Timing: LPS for 4 h, given about 3 days after siRNA transfection
# Conditions: bacterial LPS (TLR4 ligand), 10 ng/ml
# Detection: 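TNF firefly reporter luminescence divided by renilla, normalised to the plate median, then turned into a robust z-score for each replicate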
# Scale: TNF reporter robust z-score: higher = stronger TNF reporter response to LPS
# Hit rule: 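a well is active when its z-score exceeds 2.8 or falls below -1.5; control wells carry no call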
# Here is one part, drawn at random, of about 18,000 reagents. Of all reagents, about 2,900 (16%) are marked active. 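Calls are made per well; low scores hint the gene aids the LPS response, high scores that it dampens it.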 Repeated entries: four replicate wells of each siRNA pool.
gene,TNF reporter robust z-score,outcome
LRATD1,10.4,active
LRATD1,0.35,inactive
LRATD1,0.97,inactive
LRATD1,0,inactive
TRMT5,-0.1,inactive
TRMT5,-0.22,inactive
TRMT5,-0.58,inactive
TRMT5,0.44,inactive
CLSPN,4.35,active
CLSPN,2.1,inactive
CLSPN,1.15,inactive
CLSPN,2.49,inactive
NCEH1,1.84,inactive
NCEH1,2.66,inactive
NCEH1,1.54,inactive
NCEH1,2.05,inactive
ESD,0.1,inactive
ESD,-0.09,inactive
ESD,-0.57,inactive
ESD,0.77,inactive
KBTBD12,-0.07,inactive
KBTBD12,0.39,inactive
KBTBD12,0.68,inactive
KBTBD12,0.71,inactive
HDX,-0.62,inactive
HDX,0.13,inactive
HDX,0.25,inactive
ACTR10,-0.42,inactive
ACTR10,-0.34,inactive
ACTR10,-0.56,inactive
ACTR10,0.32,inactive
IL15,-0.91,inactive
IL15,-0.38,inactive
IL15,0.27,inactive
IL15,1.2,inactive
PRKAR1A,0.92,inactive
PRKAR1A,0.47,inactive
PRKAR1A,0.91,inactive
PRKAR1A,0.16,inactive
EDC3,1.55,inactive
EDC3,1.41,inactive
EDC3,0.81,inactive
EDC3,1.58,inactive
IPO5,-1.48,inactive
IPO5,-1.46,inactive
IPO5,-1.3,inactive
IPO5,-0.93,inactive
YARS1,-1.75,active
YARS1,-1.65,active
YARS1,-1.18,inactive
YARS1,-1.25,inactive
POLR3E,-0.35,inactive
POLR3E,0.49,inactive
POLR3E,1.15,inactive
POLR3E,1.28,inactive
HERC4,-1.53,active
HERC4,-0.58,inactive
HERC4,-0.83,inactive
HERC4,-0.41,inactive
BLTP2,0.62,inactive
BLTP2,-0.02,inactive
BLTP2,0.7,inactive
BLTP2,1.87,inactive
TAS2R9,0.54,inactive
TAS2R9,1.54,inactive
TAS2R9,1.22,inactive
TAS2R9,-0.45,inactive
PTGDR2,0.03,inactive
PTGDR2,-0.9,inactive
PTGDR2,-0.91,inactive
PTGDR2,-0.73,inactive
CLYBL,0.08,inactive
CLYBL,0.24,inactive
CLYBL,-0.55,inactive
CLYBL,-0.59,inactive
PDCD1,1.67,inactive
PDCD1,1.91,inactive
PDCD1,0.77,inactive
PDCD1,1.28,inactive
ARGFX,-0.51,inactive
ARGFX,-0.48,inactive
ARGFX,-0.99,inactive
ARGFX,0.16,inactive
IGSF3,-0.59,inactive
IGSF3,-0.18,inactive
IGSF3,-0.62,inactive
IGSF3,-0.37,inactive
ADGRF1,-0.56,inactive
ADGRF1,-0.45,inactive
ADGRF1,0.33,inactive
ADGRF1,1.15,inactive
S100A7P3,0.81,inactive
S100A7P3,-0.8,inactive
S100A7P3,0.27,inactive
S100A7P3,-0.18,inactive
PRSS45P,1.82,inactive
PRSS45P,2.03,inactive
PRSS45P,0.14,inactive
PRSS45P,1.28,inactive
LRRC18,1.45,inactive
LRRC18,3.33,active
LRRC18,3.65,active
LRRC18,-0.23,inactive
CCDC33,-1.02,inactive
CCDC33,-1.83,active
CCDC33,-1.56,active
CCDC33,-1.17,inactive
GRHPR,1.64,inactive
GRHPR,2.03,inactive
GRHPR,2.95,active
GRHPR,1.88,inactive

10 entries already listed, ordered by “TNF reporter robust z-score”, descending.
gene,TNF reporter robust z-score,outcome
PRSS45P,1.82,inactive
ADGRF1,1.15,inactive
S100A7P3,0.81,inactive
ADGRF1,0.33,inactive
S100A7P3,0.27,inactive
S100A7P3,-0.18,inactive
IGSF3,-0.37,inactive
ADGRF1,-0.45,inactive
ADGRF1,-0.56,inactive
S100A7P3,-0.8,inactive
